Data published in patent publication US8802713B2, “3-alkoxy-1-phenylpyrazole derivatives and pesticides” (Kumiai Chemical Industry Co., Ltd., priority 2007, dated 2014).
Some results were stated once for a whole list of compounds, not compound by compound. For at least one compound, name, drawing or mass did not settle the structure.

The compounds below were run on two-spotted spider mites (assay: Miticidal test on two-spotted spider mites (seedling dip)). Conditions: 500 ppm active ingredient, soybean seedlings with imago mites dipped, 25° C., 13 days.
Format: in vivo, Tetranvchus urticae
Outline: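 Soybean seedlings carrying adult mites were dipped in wettable-powder dilution at 500 ppm active ingredient, air-dried, and held at 25° C for 13 days. Live mites were counted and a protective value calculated.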
`COc1cc(OCC(F)(F)C(F)(F)F)nn1-c1cc([S+]([O-])CC(F)(F)F)c(C)cc1F` (stereo not drawn) [1-194] gave a protective value of no less than 90.
`Cc1cc(F)c(-n2nc(OCC(F)(F)C(F)(F)F)cc2NC(=O)CCl)cc1[S+]([O-])CC(F)(F)F` (stereo not drawn) [1-1450] showed a protective value of no less than 90.
`Cc1cc(F)c(-n2nc(OCC(F)(F)C(F)(F)C(F)(F)C(F)(F)F)cc2CF)cc1SCC(F)(F)F` [1-1581] gave a protective value of no less than 90.
Work on `Cc1cc(F)c(-n2nc(OC(F)(F)C(F)(F)C(F)(F)C(F)(F)C(F)(F)C(F)(F)F)cc2C)cc1[S+]([O-])CC(F)(F)F` (stereo not drawn) [1-703] yielded a protective value of no less than 90.
Work on `Cc1cc(F)c(-n2cc(Cl)c(OCc3ccc(F)c(C(F)(F)F)c3)n2)cc1SCC(F)(F)F` [1-1571] yielded a protective value of no less than 90.
Compound `COCCOc1cc(C)n(-c2cc([S+]([O-])CC(F)(F)F)c(C)cc2F)n1` (stereo not drawn) [1-240] has a protective value of no less than 90.
Compound `Cc1cc(F)c(-n2cc(Br)c(OC(F)(F)C(F)OC(F)(F)C(F)(F)C(F)(F)F)n2)cc1SCC(F)(F)F` (stereo not drawn) [1-1196] has a protective value of no less than 90.
For `Cc1cc(F)c(-n2cc(Cl)c(OCc3ccc(SC(F)(F)F)cc3)n2)cc1SCC(F)(F)F` [1-1561], the protective value was no less than 90.
`CC(=O)Nc1cc(OC(F)(F)C(F)OC(F)(F)C(F)(F)F)nn1-c1cc(SCC(F)(F)F)c(C)cc1F` (stereo not drawn) [1-368] showed a protective value of no less than 90.
Compound `Cc1cc(F)c(-n2nc(OC(F)(F)C(F)OC(F)(F)C(F)(F)C(F)(F)F)cc2C)cc1[S+]([O-])CC(F)(F)F` (stereo not drawn) [1-326] has a protective value of no less than 90.
For `Cc1cc(F)c(-n2ccc(OCc3ccc(SC(F)(F)F)cc3)n2)cc1SCC(F)(F)F` [1-1559], the protective value was no less than 90.
With `Cc1cc(F)c(-n2nc(OCCCOC(C(F)(F)F)(C(F)(F)F)C(F)(F)F)cc2C)cc1[S+]([O-])CC(F)(F)F` (stereo not drawn) [1-389] the protective value was no less than 90.
`Cc1cc(F)c(-n2nc(OCCC(F)(F)C(F)(F)C(F)(F)C(F)(F)F)cc2C)cc1[S+]([O-])CC(F)(F)F` (stereo not drawn) [1-312] was tested, and the protective value was no less than 90.
In the case of `Cc1cc(F)c(-n2nc(OC(F)(F)C(F)OC(F)(F)F)c(Br)c2Br)cc1[S+]([O-])CC(F)(F)F` (stereo not drawn) [1-1105], the protective value was no less than 90.
In the case of `Cc1cc(F)c(-n2cc(Cl)c(OC(F)(F)C(F)F)n2)cc1SCC(F)(F)F` [1-1451], the protective value was no less than 90.
In the case of `CC(=O)Nc1cc(OCC(F)(F)C(F)(F)F)nn1-c1cc([S+]([O-])CC2CC2)c(C)cc1F` (stereo not drawn) [1-183], the protective value was no less than 90.
`Cc1cc(F)c(-n2ccc(OC(F)(F)C(F)(F)C(F)(F)F)n2)cc1[S+]([O-])CC(F)(F)F` (stereo not drawn) [1-395] showed a protective value of no less than 90.
With `CC(=O)Nc1cc(OC(C)C(F)(F)C(F)(F)F)nn1-c1cc([S+]([O-])CC(F)(F)F)c(C)cc1F` (stereo not drawn) [1-280] the protective value was no less than 90.
Compound `Cc1cc(F)c(-n2nc(OCC(F)(F)F)cc2NC(=O)CCl)cc1SCC(F)(F)F` [1-1453] has a protective value of no less than 90.
With `CC(=O)Nc1cc(OCC(F)(F)F)nn1-c1cc(SCC(F)(F)F)c(C)cc1F` [1-1369] the protective value was no less than 90.
`Cc1cc(F)c(-n2nc(OCC3CCOC3)cc2C)cc1SCC(F)(F)F` (stereo not drawn) [1-231] showed a protective value of no less than 90.
In the case of `Cc1cc(F)c(-n2cc(Cl)c(OCC(F)(F)C(F)(F)C(F)(F)C(F)(F)F)n2)cc1SCC(F)(F)F` [1-1505], the protective value was no less than 90.
With `Cc1cc(F)c(-n2nc(OCCCC(F)(F)C(F)(F)F)cc2C)cc1SCC(F)(F)F` [1-303] the protective value was no less than 90.
With `Cc1cc(F)c(-n2nc(OC(F)F)cc2C)cc1SCC(F)(F)F` [1-1411] the protective value was no less than 90.
`CC(=O)Nc1cc(OC(C)C(F)(F)C(F)(F)C(F)(F)F)nn1-c1cc([S+]([O-])CC(F)(F)F)c(C)cc1F` (stereo not drawn) [1-284] gave a protective value of no less than 90.
Compound `Cc1cc(F)c(-n2nc(OC(F)(F)C(F)Cl)cc2C#N)cc1[S+]([O-])CC(F)(F)F` (stereo not drawn) [1-1460] has a protective value of no less than 90.
`CC(=O)Nc1cc(OCCF)nn1-c1cc([S+]([O-])CC(F)(F)F)c(C)cc1F` (stereo not drawn) [1-1378] gave a protective value of no less than 90.
`COc1cc(C)n(-c2cc(SCC(F)(F)F)c(C)cc2F)n1` [1-1413] was tested, and the protective value was no less than 90.
In the case of `Cc1cc(F)c(-n2nc(OC(F)(F)C(F)F)cc2Cl)cc1[S+]([O-])CC(F)(F)F` (stereo not drawn) [1-1424], the protective value was no less than 90.
Work on `C#CCNc1cc(OC(F)(F)C(F)OC(F)(F)C(F)(F)F)nn1-c1cc([S+]([O-])CC(F)(F)F)c(C)cc1F` (stereo not drawn) [1-354] yielded a protective value of no less than 90.
`Cc1cc(F)c(-n2nc(OC(F)(F)C(F)C(F)(F)F)cc2CF)cc1[S+]([O-])CC(F)(F)F` (stereo not drawn) [1-1578] was tested, and the protective value was no less than 90.
For `Cc1cc(F)c(-n2nc(OCC(F)(F)C(F)(F)C(F)(F)C(F)(F)F)c(Cl)c2Cl)cc1SCC(F)(F)F` [1-1511], the protective value was no less than 90.
With `Cc1cc(F)c(-n2cc(I)c(OC(F)(F)C(F)C(F)(F)F)n2)cc1[S+]([O-])CC(F)(F)F` (stereo not drawn) [1-1546] the protective value was no less than 90.
`Cc1cc(F)c(-n2nc(OC(F)(F)C(F)OC(F)(F)C(F)(F)F)c(Br)c2Br)cc1[S+]([O-])CC(F)(F)F` (stereo not drawn) [1-1107] showed a protective value of no less than 90.
With `Cc1cc(F)c(-n2nc(OCCC[Si](C)(C)C)cc2C)cc1[S+]([O-])CC(F)(F)F` (stereo not drawn) [1-300] the protective value was no less than 90.
`CC(=O)Nc1cc(OC(F)(F)C(F)(F)C(F)(F)C(F)(F)F)nn1-c1cc([S+]([O-])CC(F)(F)F)c(C)cc1F` (stereo not drawn) [1-487] gave a protective value of no less than 90.
`Cc1cc(F)c(-n2nc(OCC(F)C(F)(F)F)c(Cl)c2Cl)cc1SCC(F)(F)F` (stereo not drawn) [1-265] showed a protective value of no less than 90.
For `Cc1cc(F)c(-n2nc(OCC(F)(F)F)c(F)c2N)cc1[S+]([O-])CC(F)(F)F` (stereo not drawn) [1-1382], the protective value was no less than 90.
For `Cc1cc(F)c(-n2nc(OCC(F)C(F)(F)F)c(Br)c2Br)cc1[S+]([O-])CC(F)(F)F` (stereo not drawn) [1-256], the protective value was no less than 90.
With `Cc1cc(F)c(-n2ccc(OC(F)(F)C(F)(F)F)n2)cc1[S+]([O-])CC(F)(F)F` (stereo not drawn) [1-1476] the protective value was no less than 90.
Work on `COCCOCCOc1cc(C)n(-c2cc([S+]([O-])CC(F)(F)F)c(C)cc2F)n1` (stereo not drawn) [1-296] yielded a protective value of no less than 90.
`CNc1c(Cl)c(OCC(F)(F)C(F)(F)F)nn1-c1cc([S+]([O-])CC(F)(F)F)c(C)cc1F` (stereo not drawn) [1-215] gave a protective value of no less than 90.
Compound `Cc1cc(F)c(-n2ccc(OCCCSC#N)n2)cc1SCC(F)(F)F` [1-1517] has a protective value of no less than 90.
`CON=Cc1cc(OCC(F)(F)C(F)(F)F)nn1-c1cc(SCC(F)(F)F)c(C)cc1F` [1-207] gave a protective value of no less than 90.
`Cc1cc(F)c(-n2cc(Br)c(OC(F)(F)C(F)(F)C(F)(F)F)n2)cc1SCC(F)(F)F` [1-1176] showed a protective value of no less than 90.
Work on `Cc1cc(F)c(-n2cc(Br)c(OC(F)(F)C(F)F)n2)cc1[S+]([O-])CC(F)(F)F` (stereo not drawn) [1-1407] yielded a protective value of no less than 90.
Work on `Cc1cc(F)c(-n2nc(OCC(F)(F)F)cc2N)cc1SCC(F)(F)F` [1-1365] yielded a protective value of no less than 90.
`COCC(=O)Nc1cc(OCC(F)(F)F)nn1-c1cc([S+]([O-])CC(F)(F)F)c(C)cc1F` (stereo not drawn) [1-1432] showed a protective value of no less than 90.
`Cc1cc(F)c(-n2nc(OCC(F)C(F)(F)F)c(Br)c2Br)cc1SCC(F)(F)F` (stereo not drawn) [1-255] showed a protective value of no less than 90.
`C#CCNc1cc(OC(F)(F)C(F)F)nn1-c1cc([S+]([O-])CC(F)(F)F)c(C)cc1F` (stereo not drawn) [1-1422] showed a protective value of no less than 90.
Work on `Cc1cc(F)c(-n2cc(Cl)c(Oc3ncc(C(F)(F)F)cc3Cl)n2)cc1[S+]([O-])CC(F)(F)F` (stereo not drawn) [1-1574] yielded a protective value of no less than 90.
In the case of `Cc1cc(F)c(-n2cc(Cl)c(OCC(F)C(F)(F)F)n2)cc1SCC(F)(F)F` (stereo not drawn) [1-257], the protective value was no less than 90.
With `CNc1cc(OCC(F)(F)C(F)(F)C(F)(F)C(F)F)nn1-c1cc(SCC(F)(F)F)c(C)cc1F` [1-550] the protective value was no less than 90.
For `Cc1cc(F)c(-n2nc(OCCCC(F)(C(F)(F)F)C(F)(F)F)cc2C)cc1[S+]([O-])CC(F)(F)F` (stereo not drawn) [1-302], the protective value was no less than 90.
In the case of `Cc1cc(F)c(-n2nc(OCC(F)(F)C(F)(F)F)cc2CO)cc1SCC(F)(F)F` [1-1373], the protective value was no less than 90.
`CC(=O)Nc1cc(OCC(F)=CC(F)(F)F)nn1-c1cc(SCC(F)(F)F)c(C)cc1F` [1-191] showed a protective value of no less than 90.
Compound `Cc1cc(F)c(-n2nc(OC(F)(F)C(F)OC(F)(F)C(F)(F)C(F)(F)F)c(Cl)c2Cl)cc1SCC(F)(F)F` (stereo not drawn) [1-1062] has a protective value of no less than 90.
For `Cc1cc(F)c(-n2ccc(OCc3ccc(OC(F)(F)F)cc3)n2)cc1SCC(F)(F)F` [1-1555], the protective value was no less than 90.
Work on `Cc1cc(F)c(-n2ccc(OCc3ccc(C(F)(F)F)cc3F)n2)cc1SCC(F)(F)F` [1-1601] yielded a protective value of no less than 90.
`Cc1cc(F)c(-n2ccc(OC(F)(F)C(F)(F)C(F)(F)C(F)(F)C(F)(F)C(F)(F)F)n2)cc1[S+]([O-])CC(F)(F)F` (stereo not drawn) [1-401] gave a protective value of no less than 90.
For `COc1cc(OC(F)(F)C(F)Cl)nn1-c1cc([S+]([O-])CC(F)(F)F)c(C)cc1F` (stereo not drawn) [1-1466], the protective value was no less than 90.
`Cc1cc(F)c(-n2nc(OCCOC(C(F)(F)F)C(F)(F)F)cc2C)cc1SCC(F)(F)F` [1-386] was tested, and the protective value was no less than 90.
In the case of `CC(=O)Nc1cc(OC(C)C(F)(F)C(F)(F)C(F)(F)F)nn1-c1cc(SCC(F)(F)F)c(C)cc1F` (stereo not drawn) [1-283], the protective value was no less than 90.
`Cc1cc(F)c(-n2nc(OCC(F)(F)Cl)cc2C)cc1SCC(F)(F)F` [1-1419] was tested, and the protective value was no less than 90.
For `Cc1cc(F)c(-n2nc(OCCCC(F)(F)C(F)(F)F)cc2C)cc1[S+]([O-])CC(F)(F)F` (stereo not drawn) [1-304], the protective value was no less than 90.
Compound `Cc1cc(F)c(-n2nc(OC(F)(F)C(F)OC(F)(F)C(F)(F)F)c(Br)c2N)cc1[S+]([O-])CC(F)(F)F` (stereo not drawn) [1-1283] has a protective value of no less than 90.
In the case of `Cc1cc(F)c(-n2ccc(OC(F)(F)C(F)OC(F)(F)C(F)(F)C(F)(F)F)n2)cc1[S+]([O-])CC(F)(F)F` (stereo not drawn) [1-415], the protective value was no less than 90.
`Cc1cc(F)c(-n2cc(Br)c(OC(F)(F)C(F)(F)C(F)(F)F)n2)cc1[S+]([O-])CC(F)(F)F` (stereo not drawn) [1-1177] showed a protective value of no less than 90.
Compound `Cc1cc(F)c(-n2cc(Cl)c(OC(F)(F)C(F)(F)C(F)(F)C(F)(F)F)n2)cc1[S+]([O-])CC(F)(F)F` (stereo not drawn) [1-1137] has a protective value of no less than 90.
With `Cc1cc(F)c(-n2nc(OC(F)(C(F)(F)F)C(F)(F)F)cc2C)cc1SCC(F)(F)F` [1-696] the protective value was no less than 90.
`Cc1cc(F)c(-n2nc(OC(F)(F)C(F)F)cc2Cl)cc1SCC(F)(F)F` [1-1423] showed a protective value of no less than 90.
`Cc1cc(F)c(-n2ccc(OC(F)(C(F)(F)F)C(F)(F)F)n2)cc1[S+]([O-])CC(F)(F)F` (stereo not drawn) [1-393] showed a protective value of no less than 90.
